Results as given in the supplement of paper PMC10849652.
The other results are listed elsewhere or left out.

By UniProt entry, the sequences of proteins in these tests, tags left out. Where a name states a change or a piece, a line headed by the entry shows the natural chain unless it says otherwise.
UniProt O76064: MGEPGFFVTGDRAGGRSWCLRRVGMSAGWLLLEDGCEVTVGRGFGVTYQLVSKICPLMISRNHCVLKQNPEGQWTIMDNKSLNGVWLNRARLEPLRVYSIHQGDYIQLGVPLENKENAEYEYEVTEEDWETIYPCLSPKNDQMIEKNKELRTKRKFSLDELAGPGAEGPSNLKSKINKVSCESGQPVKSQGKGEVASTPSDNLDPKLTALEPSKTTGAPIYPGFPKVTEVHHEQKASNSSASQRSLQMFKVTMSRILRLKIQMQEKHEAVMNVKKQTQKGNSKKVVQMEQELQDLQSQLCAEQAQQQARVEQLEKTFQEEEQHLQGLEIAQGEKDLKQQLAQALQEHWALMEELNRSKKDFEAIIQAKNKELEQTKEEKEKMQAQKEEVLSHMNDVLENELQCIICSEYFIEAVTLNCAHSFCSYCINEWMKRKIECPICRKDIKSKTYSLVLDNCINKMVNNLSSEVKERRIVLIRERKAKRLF
UniProt Q6ZNA4: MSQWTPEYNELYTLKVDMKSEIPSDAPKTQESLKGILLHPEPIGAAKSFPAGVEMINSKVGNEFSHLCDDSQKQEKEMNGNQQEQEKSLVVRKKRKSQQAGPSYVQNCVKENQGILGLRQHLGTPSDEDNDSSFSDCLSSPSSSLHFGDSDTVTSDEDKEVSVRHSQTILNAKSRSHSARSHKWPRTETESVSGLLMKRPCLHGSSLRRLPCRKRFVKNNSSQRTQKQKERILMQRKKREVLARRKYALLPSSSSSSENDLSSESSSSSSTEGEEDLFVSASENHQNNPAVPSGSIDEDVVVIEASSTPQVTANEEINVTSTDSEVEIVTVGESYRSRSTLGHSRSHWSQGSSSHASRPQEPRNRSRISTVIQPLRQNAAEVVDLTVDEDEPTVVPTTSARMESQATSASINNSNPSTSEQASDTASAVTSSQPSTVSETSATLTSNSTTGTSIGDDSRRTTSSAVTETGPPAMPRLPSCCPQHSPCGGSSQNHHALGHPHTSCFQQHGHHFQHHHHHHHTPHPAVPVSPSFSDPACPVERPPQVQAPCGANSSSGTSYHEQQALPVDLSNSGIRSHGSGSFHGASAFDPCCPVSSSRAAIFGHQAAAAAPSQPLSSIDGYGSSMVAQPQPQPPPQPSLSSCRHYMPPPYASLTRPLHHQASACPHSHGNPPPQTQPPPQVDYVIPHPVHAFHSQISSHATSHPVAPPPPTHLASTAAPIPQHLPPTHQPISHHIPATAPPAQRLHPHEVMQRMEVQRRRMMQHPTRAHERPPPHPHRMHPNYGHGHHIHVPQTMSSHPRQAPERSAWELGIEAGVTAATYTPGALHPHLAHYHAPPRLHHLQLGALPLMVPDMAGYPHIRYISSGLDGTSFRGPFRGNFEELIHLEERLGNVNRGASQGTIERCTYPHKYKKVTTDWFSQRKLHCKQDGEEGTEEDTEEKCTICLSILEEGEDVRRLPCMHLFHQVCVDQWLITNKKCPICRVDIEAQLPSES
UniProt Q8TA86: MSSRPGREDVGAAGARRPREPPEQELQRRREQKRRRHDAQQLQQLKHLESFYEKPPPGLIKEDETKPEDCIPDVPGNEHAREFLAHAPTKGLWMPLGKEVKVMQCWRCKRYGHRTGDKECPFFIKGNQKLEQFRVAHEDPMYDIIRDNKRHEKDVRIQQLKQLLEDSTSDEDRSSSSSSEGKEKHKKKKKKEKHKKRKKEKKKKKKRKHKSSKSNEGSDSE
UniProt Q13129: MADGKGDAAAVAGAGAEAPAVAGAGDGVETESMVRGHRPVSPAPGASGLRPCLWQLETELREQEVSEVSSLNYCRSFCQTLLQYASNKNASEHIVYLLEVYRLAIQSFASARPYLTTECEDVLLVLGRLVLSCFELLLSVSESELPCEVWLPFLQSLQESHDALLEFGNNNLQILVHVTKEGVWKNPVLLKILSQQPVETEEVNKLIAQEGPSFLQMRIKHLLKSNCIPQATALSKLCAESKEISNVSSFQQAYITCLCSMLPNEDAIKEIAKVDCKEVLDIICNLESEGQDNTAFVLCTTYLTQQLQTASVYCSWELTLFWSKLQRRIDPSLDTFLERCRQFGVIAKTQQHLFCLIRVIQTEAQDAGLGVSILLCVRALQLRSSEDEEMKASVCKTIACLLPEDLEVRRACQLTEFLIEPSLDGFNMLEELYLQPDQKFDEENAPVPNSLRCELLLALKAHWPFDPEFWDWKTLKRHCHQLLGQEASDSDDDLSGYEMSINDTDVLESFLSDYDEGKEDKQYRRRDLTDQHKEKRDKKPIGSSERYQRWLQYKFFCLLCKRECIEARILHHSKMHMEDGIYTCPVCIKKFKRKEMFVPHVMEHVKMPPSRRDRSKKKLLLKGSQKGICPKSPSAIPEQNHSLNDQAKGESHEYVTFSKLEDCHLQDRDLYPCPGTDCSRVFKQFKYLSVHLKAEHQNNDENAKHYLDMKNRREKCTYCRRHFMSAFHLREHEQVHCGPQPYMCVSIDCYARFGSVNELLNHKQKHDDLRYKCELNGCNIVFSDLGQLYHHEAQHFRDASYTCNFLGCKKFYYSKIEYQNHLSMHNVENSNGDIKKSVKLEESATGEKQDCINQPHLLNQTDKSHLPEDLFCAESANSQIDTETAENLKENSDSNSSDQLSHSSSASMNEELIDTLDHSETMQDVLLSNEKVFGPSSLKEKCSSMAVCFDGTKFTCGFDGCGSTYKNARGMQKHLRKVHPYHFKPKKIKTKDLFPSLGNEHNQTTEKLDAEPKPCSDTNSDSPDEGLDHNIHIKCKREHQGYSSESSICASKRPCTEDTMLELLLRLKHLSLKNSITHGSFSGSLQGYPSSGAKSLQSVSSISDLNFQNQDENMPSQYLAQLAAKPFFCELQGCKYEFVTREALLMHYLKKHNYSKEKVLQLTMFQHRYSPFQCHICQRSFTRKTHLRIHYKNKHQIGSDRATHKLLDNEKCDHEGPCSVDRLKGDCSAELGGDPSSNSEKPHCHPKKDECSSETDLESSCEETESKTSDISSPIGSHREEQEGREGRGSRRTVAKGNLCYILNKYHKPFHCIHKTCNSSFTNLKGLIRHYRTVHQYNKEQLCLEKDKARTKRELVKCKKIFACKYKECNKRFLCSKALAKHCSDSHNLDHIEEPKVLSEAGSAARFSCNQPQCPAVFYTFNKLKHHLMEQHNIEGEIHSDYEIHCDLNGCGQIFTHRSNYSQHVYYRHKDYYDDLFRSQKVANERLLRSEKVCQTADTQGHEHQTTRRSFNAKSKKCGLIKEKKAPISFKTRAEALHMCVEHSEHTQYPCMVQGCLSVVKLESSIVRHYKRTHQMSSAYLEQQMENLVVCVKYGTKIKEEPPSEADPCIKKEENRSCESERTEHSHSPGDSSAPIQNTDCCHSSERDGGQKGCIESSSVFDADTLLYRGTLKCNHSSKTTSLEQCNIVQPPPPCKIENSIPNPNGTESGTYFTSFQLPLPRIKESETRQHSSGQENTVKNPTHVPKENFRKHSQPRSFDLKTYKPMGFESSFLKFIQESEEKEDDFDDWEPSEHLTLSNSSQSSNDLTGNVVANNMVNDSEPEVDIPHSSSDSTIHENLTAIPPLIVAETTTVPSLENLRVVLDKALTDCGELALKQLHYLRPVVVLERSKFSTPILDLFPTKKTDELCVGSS

Tests used:
Experiment in all cases: log2 fold change, soluble protein after heating vs DMSO (PISA); higher = thermal stabilisation; K562 lysate, 10 uM; active = over 0.2 and 3.5 SD of the protein, either way, in both replicates (recomputed)
ibrutinib = compound: C=CC(=O)N1CCC[C@@H](n2nc(-c3ccc(Oc4ccccc4)cc3)c3c(N)ncnc32)C1 [ibrutinib]
Method in brief: (§1)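 The values are log-two fold changes in thermal stability compared with solvent controls and come from duplicates. They were obtained by TMTpro 16plex LC-MS/MS, with channel sums equalised, on the supernatant after 21,000xg for 90 min. That supernatant came from crude K562 extract at 1 mg/mL protein treated with 10 μM compound for 30 min, heated for 3 min across 48°C-58°C, pooled and brought to 0.5% NP-40 at 4°C.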

[1] = compound: CC(=O)c1cnc2ccc(-c3cc(Cl)c(O)c(Cl)c3)nc2c1N[C@H]1CC[C@H](CN(C)C)CC1
Method in brief: as §1

ralimetinib = compound: CC(C)(C)Cn1c(N)nc2ccc(-c3[nH]c(C(C)(C)C)nc3-c3ccc(F)cc3)nc21 [ralimetinib]
Method in brief: as §1

[2] = compound: CC(C)(O)CC(=O)NCCn1ccc2ncnc(Nc3ccc(Oc4cccc(C(F)(F)F)c4)c(Cl)c3)c21
Method in brief: as §1

[3] = compound: CC(C)C1=C2N=C(C=C(N2N=C1)NCC3=CC=CC=C3)NCCCCCCN
Method in brief: as §1

[4] = compound: CC1=C(C(CC(=O)N1)C2=CC=C(C=C2)C(F)(F)F)C(=O)NC3=C(C=C4C(=C3)C=NN4)F
Method in brief: as §1

[5] = compound: CC1=C(C2=C(C=C1)C(=O)C3=CC=CC=C3N2CCCN)C
Method in brief: as §1

[6] = compound: CC1=C(C=C(C=C1)NC(=O)C2=CC(=CC=C2)C(C)(C)C#N)NC3=CC4=C(C=C3)N=CN(C4=O)C
Method in brief: as §1

[7] = compound: CC1=C(C=C(C=C1)NC(=O)C2=CC(=CC=C2)N(C)C)NC(=O)C3=CC=C(C=C3)O
Method in brief: as §1

[8] = compound: CC1=CC=C(C=C1)SC2=C3C=C(SC3=CN=C2)C(=O)N
Method in brief: as §1

Measured: log2 fold change

RPL13 (UniProt P26373)
inactive: ibrutinib -0.035 | [1] -0.001 | ralimetinib 0.012 | [2] -0.031 | [3] -0.008 | [4] -0.042 | [5] -0.027 | [6] -0.033 | [7] -0.005 | [8] 0.035

RNF8 (UniProt O76064)
inactive: ibrutinib 0.158 | ralimetinib -0.036 | [2] 0.043 | [3] -0.014 | [4] 0.01 | [5] -0.076 | [6] -0.005 | [7] -0.011

RNF111 isoform 3 (UniProt Q6ZNA4)
inactive: [6] -0.091

RP9 (UniProt Q8TA86)
inactive: [1] -0.012 | [3] 0.015 | [5] 0.079 | [6] 0.001 | [8] 0.009

RLF (UniProt Q13129)
inactive: [1] 0.018 | [4] -0.046 | [5] 0.055 | [6] 0.087 | [8] 0
